For 37 compounds, survivor count and T/C results are on record in PubChem BioAssay AID256 (DTP/NCI, 2004).

The list shows only some results of the screen, not a fair sample: it gathers tests that were run many times, whatever their T/C, doses with no T/C, and many T/C values between a quarter and a half above the control. Further doses and runs are listed elsewhere. T/C: endpoint of the treated group in % of that of the vehicle group. Some entries give survivors of the animals treated and no T/C: the source files T/C as zero there, which appears to mark a toxic dose or a test without result, not a measured value. Some survivor counts are full or nearly so, which does not show that the dose was tolerated: survival well below the control is almost never listed, so the zero probably covers shortened survival too. Survivors were counted at the toxicity check, usually on the fifth day, unless a day is given; later deaths do not show. Schedule codes are those of the source, read here as Q, the interval in days (D) or hours (H), X, the number of doses. Some schedules carry Z or #; the key to these is not given. Some structures stand for samples that the source files as different forms (salt, stereo form or complex); doses refer to the form tested. For survival time, the PubChem record calls one and a half times the control and up active, and a quarter to a half above the control has no call in these data; cut-offs in other NCI protocols can differ. Some doses were run more than once; their values stand side by side, smallest first.

This experiment has as its system CD2F1 mice, L1210 leukemia ip, survival T/C. Kind of experiment: NCI In Vivo Anticancer Drug Screen. Data for tumor model L1210 Leukemia (intraperitoneal) in CD2F1 (CDF1) mice. Particulars: higher T/C = longer survival. The procedure, abridged: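 In this screen, transplantable tumors were grown in mice given either the compound or its vehicle. Results were expressed as the treated measurement relative to the control measurement.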

The mark [1] stands for this setting: T/C endpoint: mean survival time, dose: 100.0 mg/kg/injection, schedule: Q01DX001 (ip), vehicle: saline with Tween-80.
[2] abbreviates: T/C endpoint: mean survival time, dose: 400.0 mg/kg/injection, schedule: Q01DX009 (ip), vehicle: saline with Tween-80.
Where [3] appears, read: T/C endpoint: mean survival time, dose: 200.0 mg/kg/injection, schedule: Q04DX003 (ip), vehicle: saline with Tween-80.
Where [4] appears, read: T/C endpoint: mean survival time, dose: 400.0 mg/kg/injection, schedule: Q04DX003 (ip), vehicle: saline with Tween-80.
Where [5] appears, read: T/C endpoint: mean survival time, dose: 400.0 mg/kg/injection, schedule: Q01DX001 (ip), vehicle: saline.
Setting [6] is: T/C endpoint: mean survival time, dose: 100.0 mg/kg/injection, schedule: Q04DX002 (ip), vehicle: saline with Tween-80.
Where [7] appears, read: T/C endpoint: mean survival time, dose: 200.0 mg/kg/injection, schedule: Q04DX002 (ip), vehicle: saline with Tween-80.
The mark [8] stands for this setting: T/C endpoint: mean survival time, dose: 400.0 mg/kg/injection, schedule: Q04DX002 (ip), vehicle: saline with Tween-80.
[9] abbreviates: T/C endpoint: mean survival time, dose: 50.0 mg/kg/injection, schedule: Q01DX009 (ip), vehicle: other.
Setting [10] is: T/C endpoint: mean survival time, dose: 25.0 mg/kg/injection, schedule: Q04DX003 (ip), vehicle: saline with Tween-80.
Where [11] appears, read: T/C endpoint: mean survival time, dose: 300.0 mg/kg/injection, schedule: Q01DX001 (ip), vehicle: saline.

In the case of `S=C1OC(c2ccccc2)(c2ccccc2)c2ccsc21`, the survivor count under setting [1] is 2 of 3.
The same measure, in the same setting: in the case of `CC(C)(C)C1=CC(=O)C(Cl)(C(C)(C)C)C(Cl)C1=O` (stereo not drawn) it was 3 of 3.
For `C=CCNC(=O)OCC`, the survivor count under setting [2] is 4 of 6.
Regarding `CO/C(=N\C(=O)NC1CC(OC(=O)c2ccc(C)cc2)C(COC(=O)c2ccc(C)cc2)O1)NC(=O)c1ccc(C)cc1` (stereo not drawn), the survivor count is recorded as 6 of 6 under setting [3] and 6 of 6 under setting [4].
As for `CCC(=O)c1ccc2c(c1)N(C(C)CN(C)C)c1ccccc1S2` (stereo not drawn), the survivor count (T/C endpoint: mean survival time, dose: 200.0 mg/kg/injection, schedule: Q04DX003 (ip), vehicle: saline) is on record as 2 of 6.
Consider `Cc1ccccc1N`, for which, under setting [2], the survivor count is reported as 3 of 6.
With `NC(=O)C1=C(CCCCl)c2ccccc2C1=O`, the survivor count under setting [5] is given as 0 of 6.
Consider `NC(=O)c1[nH]cnc1/N=N/N(CCCl)Cc1ccccc1`, for which the T/C is, setting by setting: (T/C endpoint: mean survival time, dose: 44.0 mg/kg/injection, schedule: Q01DX009 (ip), vehicle: Klucel (hydroxypropylcellulose) (HPC)) 143 % of control; (T/C endpoint: mean survival time, dose: 100.0 mg/kg/injection, schedule: Q04DX003 (ip), vehicle: Klucel (hydroxypropylcellulose) (HPC)) 131 % of control.
In the case of `COCNC(=S)N/N=C/c1ccccn1`, the survivor count is listed as 1 of 3 under setting [6], 0 of 3 under setting [7] and 0 of 3 under setting [8].
Regarding `CNP1(=O)OC(c2ccccc2)=CCN1CCCl` (stereo not drawn), the survivor count (T/C endpoint: median survival time, dose: 500.0 mg/kg/injection, schedule: Q01DX001 (ip), vehicle: distilled water + Tween-80) is given as 2 of 6.
`CN(CC1CCCC1)C1CCCCC1`: the survivor count by setting is: (T/C endpoint: mean survival time, dose: 200.0 mg/kg/injection, schedule: Q01DX001 (ip), vehicle: saline) 1 of 6; under setting [5], 0 of 6.
Consider `CCCCCCCCN(C)N=Nc1ccccc1`, for which the T/C (T/C endpoint: mean survival time, dose: 118.0 mg/kg/injection, schedule: Q01DX009 (ip), vehicle: Klucel (hydroxypropylcellulose) (HPC)) was 128 % of control. Further, the survivor count (T/C endpoint: mean survival time, dose: 400.0 mg/kg/injection, schedule: Q01DX009 (ip), vehicle: Klucel (hydroxypropylcellulose) (HPC)) was 3 of 6.
As to `CCC(CO)C(C)C` (stereo not drawn), the survivor count under setting [4] is reported as 0 of 6.
For the compound `CCC(CCC(C)C1CCC2C3CC=C4CC(O)CCC4(C)C3CCC12C)C(C)C` (stereo not drawn) (tested in a mixture with another compound), the survivor count (T/C endpoint: mean survival time, dose: 50.0 mg/kg/injection, schedule: Q01DX009 (ip), vehicle: acetone) was 5 of 6.
In the case of `Nc1nc(N)c2nc3c4ccccc4c4ccccc4c3nc2n1`, the survivor count (T/C endpoint: mean survival time, dose: 200.0 mg/kg/injection, schedule: Q01DX009 (ip), vehicle: saline with Tween-80) is 2 of 6 and the survivor count under setting [2] is 3 of 6.
Consider `c1ccc2c(CN3CC3)c[nH]c2c1`, for which, under setting [9], the T/C is 137 % of control. The survivor count is, setting by setting: under setting [9], 5 of 6; (T/C endpoint: mean survival time, dose: 75.0 mg/kg/injection, schedule: Q01DX009 (ip), vehicle: other) 3 of 6; (T/C endpoint: mean survival time, dose: 100.0 mg/kg/injection, schedule: Q01DX009 (ip), vehicle: other) 1 of 6; under setting [2], 2 of 6.
Turning to `CCCCCCCCCCCC1CCCC(C)N1` (stereo not drawn), the survivor count under setting [6] is reported as 3 of 3, the survivor count under setting [7] is listed as 0 of 3 and the survivor count under setting [8] is recorded as 0 of 3.
For the compound `C[CH2][Sn]([Cl])([Cl])[CH2]C.Oc1ccccc1C=NCCN=Cc1ccccc1O`, the survivor count is, setting by setting: (T/C endpoint: mean survival time, dose: 100.0 mg/kg/injection, schedule: Q04DX003 (ip), vehicle: saline with Tween-80) 0 of 6; under setting [3], 0 of 6; under setting [4], 0 of 6.
Regarding `CCC(c1ccc2cc(OC)ccc2c1)C(C(=O)O)C(=O)O` (stereo not drawn), the survivor count (T/C endpoint: mean survival time, dose: 400.0 mg/kg/injection, schedule: Q04DX003 (ip), vehicle: Klucel (hydroxypropylcellulose) (HPC)) is on record as 2 of 6.
Take `C=CCOCC(O)C[As](=O)(O)c1cccc(Cl)c1` (stereo not drawn): under setting [10], the survivor count is recorded as 6 of 6.
Consider `Nc1ccn([C@@H](C=O)C[C@@H](C=O)CO)c(=O)n1`, for which, where the note is “T/C endpoint: median survival time, dose: 200.0 mg/kg/injection, schedule: Q01DX009 (ip), vehicle: saline”, the T/C was 137 and 149 % of control.
Take `CCCCC(CC)C(=O)[O][Sn]([CH2]CCC)([CH2]CCC)[O]C(=O)C(CC)CCCC` (stereo not drawn): the survivor count (T/C endpoint: mean survival time, dose: 12.5 mg/kg/injection, schedule: Q04DX003 (ip), vehicle: saline with Tween-80) was 1 of 6 and the survivor count under setting [10] is reported as 0 of 6.
As to `CC(C)OC(=O)Nc1cc(F)ccc1F`, the survivor count (T/C endpoint: mean survival time, dose: 400.0 mg/kg/injection, schedule: Q01DX009 (ip), vehicle: other) is 6 of 6.
For the compound `CCCCCNc1ncnc2c(C)[nH]nc12`, under “T/C endpoint: median survival time, dose: 400.0 mg/kg/injection, schedule: Q01DX009 (ip), vehicle: Klucel (hydroxypropylcellulose) (HPC)”, the survivor count is given as 4 of 6.
For the compound `CC1(C)C2CCC1(CS(=O)(=O)O)C(=O)C2Br.[Ag]` (stereo not drawn), the survivor count (T/C endpoint: mean survival time, dose: 200.0 mg/kg/injection, schedule: Q04DX003 (ip), vehicle: acetone) is 3 of 6 and the survivor count (T/C endpoint: mean survival time, dose: 400.0 mg/kg/injection, schedule: Q04DX003 (ip), vehicle: acetone) is 1 of 6.
For the compound `CN1CCC(O)(O)C(Br)C1` (stereo not drawn), the survivor count is reported as 3 of 6 (T/C endpoint: mean survival time, dose: 150.0 mg/kg/injection, schedule: Q01DX001 (ip), vehicle: saline) and 0 of 6 under setting [11].
Regarding `COC(=O)/C(C#N)=C(\C)CC(C)C`, under setting [11], the survivor count is reported as 2 of 6.
Take `COc1cc2c3c(c1)-c1c(ccc(OC)c1OC)CC3N(CCCl)CC2` (stereo not drawn): the survivor count is on record as 2 of 6 (T/C endpoint: mean survival time, dose: 100.0 mg/kg/injection, schedule: Q04DX003 (ip), vehicle: water); 0 of 6 (T/C endpoint: mean survival time, dose: 200.0 mg/kg/injection, schedule: Q04DX003 (ip), vehicle: water); 0 of 6 (T/C endpoint: mean survival time, dose: 400.0 mg/kg/injection, schedule: Q04DX003 (ip), vehicle: water).
Consider `COc1ccc(-c2nccc3cc(OC)c(OC)cc23)cc1OC`, for which the survivor count is on record as 3 of 6 (T/C endpoint: mean survival time, dose: 100.0 mg/kg/injection, schedule: Q01DX009 (ip), vehicle: water) and 3 of 6 (T/C endpoint: mean survival time, dose: 200.0 mg/kg/injection, schedule: Q01DX009 (ip), vehicle: water).
Take `COCCNC1=C(C)C(=O)C2=C(C1=O)[C@H](COC(N)=O)[C@]1(OC)[C@@H]3N[C@@H]3CN21`: the T/C was 125 % of control (T/C endpoint: mean survival time, dose: 6.0 mg/kg/injection, schedule: Q01DX001 (ip), vehicle: distilled water + Tween-80) and 144 % of control (T/C endpoint: mean survival time, dose: 12.0 mg/kg/injection, schedule: Q01DX001 (ip), vehicle: distilled water + Tween-80).
Take `Cc1ccc(S(=O)(=O)NC(=O)OCCc2c3ccccc3nc3ccccc23)cc1`: the survivor count runs as follows: (T/C endpoint: mean survival time, dose: 400.0 mg/kg/injection, schedule: Q04DX002 (ip), vehicle: other) 0 of 3; under setting [8], 0 of 3.
On to `CCCCOC(=O)COc1c(Cl)ccc(Cl)c1Cl`, for which the survivor count under setting [8] is on record as 1 of 3.
Take `Nc1ccc(S(=O)(=O)Nc2cnc3c(Cl)cccc3n2)cc1`: the survivor count (T/C endpoint: median survival time, dose: 1200.0 mg/kg/injection, schedule: Q01DX005 (ip), vehicle: DMSO) was 0 of 6.
Turning to `COC(=O)/C=C/N(CCF)CCF`, the survivor count (T/C endpoint: mean survival time, dose: 10.0 mg/kg/injection, schedule: Q01DX Z (ip), vehicle: saline) is given as 0 of 6.
For `O=NNc1ccc2cccnc2n1`, the T/C (T/C endpoint: median survival time, dose: 36.0 mg/kg/injection, schedule: Q01DX005 (ip), vehicle: water) is 143 % of control. The survivor count by setting is: (T/C endpoint: median survival time, dose: 200.0 mg/kg/injection, schedule: Q01DX005 (ip), vehicle: water) 5 of 6; (T/C endpoint: median survival time, dose: 277.77 mg/kg/injection, schedule: Q01DX005 (ip), vehicle: water) 4 of 6.
As to `COc1ccc(C2=CSc3ccccc3N2)cc1`, the survivor count under setting [8] was 1 of 3.
Take `CCN(CCS)Cc1ccccc1`: the survivor count by setting is: under setting [3], 3 of 6; under setting [4], 0 of 6.
